For test [1], the target named is Yes‐associated protein (YAP), endogenous in N2a cells (mouse (endogenous in N2a)) (UniProt P46938). Description: proximity ligation; Duolink PLA on fixed, permeabilised N2a cells treated with RA; mouse anti-YAP and rabbit anti-CREB antibodies; endogenous proteins.
Test [2] deals with FLAG‐tagged full‐length YAP (UniProt P46938). The experiment in a line: co-IP; FLAG IP from N2a cells transfected with FLAG-tagged full-length, N-terminally or C-terminally deleted YAP; Western blot for CREB.
Test [3] addresses Yes‐associated protein (YAP), endogenous in N2a cells (mouse (endogenous in N2a)) (UniProt P46938). The experiment in a line: co-IP; IP of endogenous YAP from nuclear extracts of RA-treated N2a cells, antibody cross-linked to protein A beads, 4°C overnight, washed with 0.1% Triton X-100 PBS; Western blot for YAP, CREB, p-CREB and GAPDH; IgG control IP.

The chains behind the UniProt entries cited, without tags or fusion partners. Where a name states a change or a piece, a line headed by the entry shows the natural chain unless it says otherwise. A line that says so, or that is headed by a name, gives the form on record, which may keep a tag or linker.
UniProt P46938: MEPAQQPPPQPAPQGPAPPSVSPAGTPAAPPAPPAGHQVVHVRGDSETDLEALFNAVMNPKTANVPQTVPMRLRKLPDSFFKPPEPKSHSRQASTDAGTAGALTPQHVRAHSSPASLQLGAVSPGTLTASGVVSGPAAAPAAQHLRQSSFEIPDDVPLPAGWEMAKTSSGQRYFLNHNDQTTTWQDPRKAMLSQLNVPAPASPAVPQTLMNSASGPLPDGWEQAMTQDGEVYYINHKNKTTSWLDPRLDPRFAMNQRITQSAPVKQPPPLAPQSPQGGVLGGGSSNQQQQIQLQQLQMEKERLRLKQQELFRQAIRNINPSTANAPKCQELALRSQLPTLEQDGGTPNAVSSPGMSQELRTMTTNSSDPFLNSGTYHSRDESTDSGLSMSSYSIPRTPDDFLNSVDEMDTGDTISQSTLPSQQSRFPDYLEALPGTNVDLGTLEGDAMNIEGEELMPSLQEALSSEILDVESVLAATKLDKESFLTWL
phosphorylated CREB (p‐CREB), endogenous in N2a cells (Q01147-1, form named): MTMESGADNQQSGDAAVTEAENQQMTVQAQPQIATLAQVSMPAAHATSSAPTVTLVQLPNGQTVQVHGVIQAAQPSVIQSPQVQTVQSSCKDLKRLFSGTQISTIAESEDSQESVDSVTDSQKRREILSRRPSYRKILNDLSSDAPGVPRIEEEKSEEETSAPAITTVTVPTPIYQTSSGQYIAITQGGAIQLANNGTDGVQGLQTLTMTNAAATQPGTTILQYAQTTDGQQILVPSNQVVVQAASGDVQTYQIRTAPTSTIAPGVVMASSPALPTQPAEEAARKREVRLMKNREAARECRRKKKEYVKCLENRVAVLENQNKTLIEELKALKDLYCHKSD

Results are given in words; binding and its absence hold for the method and conditions named. Binding seen in cells or lysates may run through a third protein. Some binding calls cover weakened binding; strength is not graded here.

With “cAMP response element‐binding protein (CREB), endogenous in N2a cells (total CREB) (from UniProt Q01147-1 1-341)”, the binding result in test [1], in test [2] and in test [3] was “binds” throughout.
On to “phosphorylated CREB (p‐CREB), endogenous in N2a cells (from UniProt Q01147-1 1-341)”, for which, in test [3], the binding entry is given as “binds”.

The record behind these values is publication PMC5742726.
